This is an account of results in paper PMC5561112, “Thermodynamic and Kinetic Analyses of Iron Response Element (IRE)-mRNA Binding to Iron Regulatory Protein, IRP1”.

As usually defined, the Kd is the free concentration of one partner at which half of the binding sites on the other are occupied at equilibrium, for simple one-to-one binding.

In this data set the target is T1, IRP1 (iron regulatory protein 1) (rabbit) (UniProt Q01059).
T1 sequence (looked up, limits assumed): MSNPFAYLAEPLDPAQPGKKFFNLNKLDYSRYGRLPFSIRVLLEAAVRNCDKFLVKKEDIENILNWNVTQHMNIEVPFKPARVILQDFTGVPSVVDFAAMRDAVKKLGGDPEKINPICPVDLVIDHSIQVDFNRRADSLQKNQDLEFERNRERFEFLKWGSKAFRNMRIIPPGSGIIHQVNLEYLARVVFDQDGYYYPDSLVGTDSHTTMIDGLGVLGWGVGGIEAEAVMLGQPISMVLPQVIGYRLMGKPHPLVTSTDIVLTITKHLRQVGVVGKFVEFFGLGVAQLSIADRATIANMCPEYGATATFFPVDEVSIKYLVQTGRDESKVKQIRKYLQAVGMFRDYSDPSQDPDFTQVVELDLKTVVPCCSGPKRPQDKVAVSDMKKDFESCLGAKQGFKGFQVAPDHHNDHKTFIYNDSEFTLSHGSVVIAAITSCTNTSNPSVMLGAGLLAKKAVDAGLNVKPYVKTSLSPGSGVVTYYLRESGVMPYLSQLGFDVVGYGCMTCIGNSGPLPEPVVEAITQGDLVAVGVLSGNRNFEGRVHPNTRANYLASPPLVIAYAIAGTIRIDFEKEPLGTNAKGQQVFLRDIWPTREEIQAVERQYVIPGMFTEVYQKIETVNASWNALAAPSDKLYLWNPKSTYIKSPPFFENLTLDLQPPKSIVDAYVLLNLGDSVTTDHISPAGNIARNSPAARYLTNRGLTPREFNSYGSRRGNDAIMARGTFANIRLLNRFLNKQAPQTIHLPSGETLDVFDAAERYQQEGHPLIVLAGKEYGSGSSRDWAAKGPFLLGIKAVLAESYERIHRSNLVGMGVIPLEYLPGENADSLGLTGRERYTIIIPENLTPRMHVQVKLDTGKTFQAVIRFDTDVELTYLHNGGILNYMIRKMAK
Kind of data set: fluorescence anisotropy. To be noted: 50 µM Mn2+, 40 mM HEPES pH 7.2, 100 mM KCl, 5-30 °C, labeled RNA 50 nM or 100 nM (Methods), recombinant protein, label: 5' fluorescein. A general note: In fluorescence polarisation assays a small probe gives low polarisation when free and higher when bound to something large.

Construct, isoform or probe ends are uncertain for at least one entry. Protein sequences can lack the tags named with them.

Turning to “CCUCAUCUUUGUCAGUGCACAAAAUGGCG [ACO2 IRE-RNA (mitochondrial aconitase IRE)]”, the Kd was found to be 535 nM (5 °C); 593 nM (10 °C); 648 nM (15 °C); 701 nM (20 °C); 750 nM (25 °C); 801 nM (30 °C).
For the sequence “GUUCUUGCUUCAACAGUGUUUGAACGGAAC [FRT IRE-RNA (ferritin IRE)]”, the Kd was 83.3 nM (5 °C); 102 nM (10 °C); 112 nM (15 °C); 137 nM (20 °C); 174 nM (25 °C); 193 nM (30 °C).
